The whole screen tested about 340,000 compounds, of which about 170 (0.05%) were called active. The inconclusive results got no clear call from the source; some entries with a clear call stand among them for comparison. Calls come from the whole dose curve; as a rule, active = well fitted inhibition curve with a large enough effect in the signal ratio, with a control signal flat (not every such curve was filed as active); inconclusive = small, poorly fitted or top-dose-only effect, or effect the other way, or a change in a side signal; inactive = flat fitted curve, though single readings scatter; the % refers to the signal ratio. A potency beside an inconclusive call is a rough fit, not a confirmed value.
experiment: qHTS Assay to Find Inhibitors of Chronic Active B-Cell Receptor Signaling; conditions: ABC-DLBCL IkBa-CBG/CBR reporter, luminescence ratio (green luciferase fused to IkBa over red control in TMD8 lymphoma cells), 4 h; activity change, negative = inhibition: at 46.1 µM (top of the series);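 for activity change, negative = inhibition: plate controls were basal doxycycline-induced cells for no effect and cells given 10 µM MG132 for full effect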
Outline: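 Concentration-response series (up to 46 uM) were applied to TMD8 dual-reporter cells for 4 h at 37C with doxycycline. Green/red ratio, after filter-overlap correction, defined %Activity; red signal alone was normalised to basal cells and zero luminescence.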
Potency is the fitted concentration of half-maximal effect.

SMILES	activity change, negative = inhibition	Potency
COc1ccc(-c2cccc(-c3cc(=O)oc4ccc(C(C)(C)C)cc34)c2)cc1	inactive	–
COC(=O)c1cccc(COC(=O)c2cc3ccccc3oc2=O)c1	inconclusive: 4.11%	–
Cc1ccc(OCCSCc2nnc(NC(=O)Nc3cccc(Cl)c3)s2)cc1	inconclusive: 10.8%	–
COc1ccc(NC(=O)c2ccccc2SC)cc1OC	–	inconclusive: 9.2 µM [falling, partial curve, poor fit]
CCN(CC)S(=O)(=O)c1ccc2c(c1)N(CC(=O)NCc1ccco1)C(=O)CO2	inactive	–
COc1ccc(C(=O)NC(=S)Nc2ccc(CN3CCOCC3)cc2)cc1OC	–	inconclusive: 6.31 µM [falling, full curve, poor fit]
O=C(NCc1ccco1)c1ccc(S(=O)(=O)N2CCCc3ccccc32)cc1	inconclusive: -0.761%	–
Cc1ccc(S(=O)(=O)N2CCC(C(=O)N[C@@H](Cc3ccccc3)C(=O)O)CC2)cc1	inconclusive: 4.75%	–
O=C(CCS(=O)(=O)c1ccccc1)Nc1ccccc1F	inconclusive: -2.41%	–
COc1ccc(-c2csc(NC(=S)NC(=O)/C=C/c3ccco3)n2)cc1OC	inconclusive: 5.67%	–
COc1ccc(C(CCN(Cc2ccc(OC)c(OC)c2)C(C)=O)C(C)C)cc1 (centres undefined)	inactive	–
CCCC(=O)Nc1ccc2c(c1)nc1n2CCN(CCOC)C1	inconclusive: 1.82%	–
Clc1cccc(NC2=NCCC2)c1	inconclusive: 2.95%	–
COCCn1nnnc1C(c1ccc(OC)cc1OC)N1CCN(c2ccccc2F)CC1 (centres undefined)	inactive	–
Cc1csc(NC(=O)CSc2nnc(Cc3cccn3C)n2-c2ccc(F)cc2)n1	inconclusive: 0.748%	–
Cn1c(Cn2c(=O)sc3ccccc32)nnc1SCC(=O)NC1CCCC1	inconclusive: 11.8%	–
COc1cc(CN2CCc3ccc(NC(=O)CCc4ccccc4OC)cc3C2)ccc1O	inconclusive: -2.92%	–
Cn1c2ccccc2c(=O)c2c(=O)n(-c3ccc(F)cc3)c(-c3cccs3)nc21	–	inconclusive: 20 µM [falling, single point]
COc1ccc(CN(CC(=O)NCc2ccccc2)C(=O)CCC(=O)Nc2cc(C)ccn2)cc1	inconclusive: -8.25%	–
O=C(NNS(=O)(=O)c1ccccc1)c1ccc(O)cc1	–	inconclusive: 18.4 µM [falling, partial curve]
COc1ccc(NC(=O)c2ccccc2NC(=O)c2ccccc2C(=O)O)c(OC)c1	–	inconclusive: 35.5 µM [falling, partial curve, poor fit]
Cc1ncc(CO)c2c1Oc1nc(-c3ccccc3)nc(SCC(=O)N3CCCCC3)c1C2	inconclusive: -6.39%	–
CCOC(=O)C1CCN(C(=O)COC(=O)/C=C/c2cccc(OC)c2OC)CC1	inconclusive: -7.25%	–
CCN(C[C@H]1N[C@@](CC)(C(=O)OC)[C@H]2C(=O)N(C)C(=O)[C@@H]12)C(=O)c1ccc(C(C)(C)C)cc1	inactive	–
COc1ccc2nc(C)cc(N3CCOCC3)c2c1	inactive	–
COc1ccc(Cl)cc1Nc1nc(N)c2ccccc2n1	inconclusive: -3.75%	–
O=[N+]([O-])c1cccnc1NCCNc1ncc(C(F)(F)F)cc1Cl	inconclusive: 7.17%	–

SMILES	activity change, negative = inhibition	Potency
O=C(CCc1ccccc1)Nc1ccc(NS(=O)(=O)c2ccccc2)cc1	inconclusive: -7.87%	–
COc1ccc(NC(C)C(=O)Nc2cccc(S(=O)(=O)N3CCOCC3)c2)cc1OC (centres undefined)	inactive	–
CC(=O)Cc1nsc(NC(=O)c2cc(-c3ccc(Cl)c(Cl)c3)oc2C)n1	–	inconclusive: 11.2 µM [rising, partial curve]
CCN(c1cccc(C)c1)S(=O)(=O)c1ccc(-c2cc(C)no2)s1	–	inconclusive: 12.6 µM [falling, partial curve]
O=C(c1ccccc1NS(=O)(=O)c1ccc(F)cc1)N1CCCCC1	inactive	–
O=C(Cn1c(=O)n(CC(=O)NCc2ccccc2)c2ccccc21)NCc1ccccc1	–	inconclusive: 2.91 µM [falling, partial curve, poor fit]
O=C(COc1ccc([N+](=O)[O-])cc1)Nc1ccc2c(c1)nc1n2CCOC1	inconclusive: 0.44%	–
CCOC(=O)c1cccc(NS(=O)(=O)c2ccc(NC(C)=O)cc2)c1	inactive	–
Cc1cccc(NS(=O)(=O)c2cnc(Cl)c(Br)c2)n1	–	inconclusive: 14.6 µM [activator, partial curve, poor fit]
O=C(Nc1ccc2c(c1)OCCO2)C1CCCN(S(=O)(=O)c2cccnc2)C1 (centres undefined)	–	inconclusive: 23.1 µM [falling, partial curve, poor fit]
Clc1ccc(N2CCN(Cc3c[nH]c4ncccc34)CC2)cc1	inactive	–
Cc1cc(C)cc(-n2c(C)cc(/C=N/NC(=O)c3cccc([N+](=O)[O-])c3C)c2C)c1	inconclusive: -28.8%	–
O=C(Nc1ccnn1C1CCN(Cc2ccc(O)c(Cl)c2)CC1)C1CCCC1	inconclusive: -0.333%	–
CN(C(=O)c1ccc2nccnc2c1)C1CCCCC1	–	inconclusive: 35.5 µM [falling, single point]
Cc1c(C#N)c(O)n(CCO)c(=O)c1N=Nc1ccc2c(c1)COC2=O	inconclusive: 7.42%	–
Cc1csc(NC(=O)CSc2ncnc3c2cnn3-c2ccccc2Cl)n1	–	inconclusive: 18.4 µM [falling, partial curve, poor fit]
COc1ccc(NC(=O)COC(=O)CN2C(=O)C3CC=CCC3C2=O)c([N+](=O)[O-])c1 (centres undefined)	inconclusive: 0.405%	–
CC1CC(C(F)(F)F)n2nc(C(=O)O)cc2N1 (centres undefined)	inactive	–
Cc1ccc2c(c1)C1CN(C)CCC1N2C(=S)NC(=O)c1ccc(Cl)cc1Cl (centres undefined)	inactive	–
Cc1cc(NC(=O)c2cncc(Br)c2)no1	inconclusive: 1.88%	–
O=C(Nc1cccc(S(=O)(=O)N2CCCC2)c1)c1ccncc1	inactive	–
Cc1c(Cl)cccc1Nc1ncccc1C(=O)OCC(O)CO (centres undefined)	inconclusive: -14%	–
COc1ccc(/C=N/NC(=O)c2nonc2N)cc1OC	inconclusive: 12.4%	–
CCN(CC)CCC(c1cc(OC)c(OC)c(OC)c1)c1c(OC)cc(OC)c2c(-c3ccccc3)cc(=O)oc12 (centres undefined)	–	inconclusive: 20 µM [falling, partial curve, poor fit]
Cc1cc(NC(=O)C(C)SCC(=O)Nc2cc(Cl)ccc2N2CCN(C)CC2)no1 (centres undefined)	inactive	–
COCC(=O)N1CCC(Oc2ccc(C(=O)NCCc3ccncc3)cc2)CC1	inconclusive: 2.91%	–
CCc1nnc(NC(=O)CSc2nc(-c3ccccc3)nc3ccccc23)s1	inactive	–

SMILES	activity change, negative = inhibition	Potency
COc1cc(NC(=O)c2ccccc2)c(OC)cc1NC(=O)CSc1[nH]c(=O)cc(C)c1C#N	inactive	–
N#CC1(NC(=O)COC(=O)/C=C/c2ccc3ccccc3n2)CCCCC1	inactive	–
Cn1cc(CNCc2ccccc2OCC(O)CN2CCc3ccccc3C2)cn1 (centres undefined)	–	inconclusive: 20 µM [falling, single point]
Cn1nnc(NC(=S)NC(=O)c2cccc3c(Cl)cccc23)n1	–	inconclusive: 15.8 µM [rising, partial curve, poor fit]
O=C1NCCN1C(=O)C12CC3CC(CC(C3)C1)C2	inconclusive: -11.9%	–
Cc1cc(C(F)F)n2nc(C(=O)Nc3ccc(S(=O)(=O)NC45CC6CC(CC(C6)C4)C5)cc3)nc2n1	–	inconclusive: 18.4 µM [rising, partial curve, poor fit]
Cc1cccc(Nc2nc3ccccc3s2)c1C	inconclusive: -1.18%	–
O=C(OCC(=O)N1CCN(C(=O)c2ccco2)CC1)c1cccc(S(=O)(=O)N2CCc3ccccc32)c1	inactive	–
Cc1ccc(CN(Cc2ccccc2)C(=S)NCC(=O)NCc2cccnc2)o1	–	inconclusive: 14.1 µM [falling, partial curve]
CCOCCCNCC(O)c1ccccc1 (centres undefined)	inconclusive: -8.24%	–
CC(=O)N[C@H](C(=O)N[C@@H](C)C(=O)N[C@H](C#N)CC(=O)O)C(C)C	inactive	–
CCCC(=O)NC(=S)Nc1cc(-c2nc3ncccc3o2)ccc1C	inconclusive: 0.0343%	–
CCC/C(=N\NC(=O)c1ccco1)c1ccc(Cl)s1	inactive	–
O=C(Nc1ccccc1C(F)(F)F)c1cc(-c2ccc(O)cc2)on1	inconclusive: -28.5%	–
O=C(OCCc1cc2ccccc2c(=O)o1)c1cccs1	inconclusive: 7.48%	–
Cc1nn2c(-c3ccccn3)ccnc2c1Cl	inconclusive: 8.59%	–
CCN(CC)S(=O)(=O)c1ccc(N2CCOCC2)c(NC(=O)c2[nH]c(C)c(C(C)=O)c2C)c1	–	inconclusive: 4.61 µM [falling, partial curve, poor fit]
COc1ccc(OC)c(NC(=O)COC(=O)Cc2ccc(-c3ccccc3)cc2)c1	–	inconclusive: 9.2 µM [falling, partial curve, poor fit]
C/C(=N\NC(=O)c1cc(C)[nH]n1)c1cccs1	–	inconclusive: 11.2 µM [falling, partial curve]
CCCN(CCC)C(=O)C1CCN(c2cc(C)nc3c(-c4ccc(OC)c(OC)c4)c(C)nn23)CC1	inconclusive: -0.549%	–
C=CCNc1nc(NCc2ccccc2)c(C#N)c2c1CN(C)CC2	inconclusive: -0.0307%	–
Cc1ccc(C(=O)COC(=O)c2nc3nccc(C)n3n2)c(C)c1	inconclusive: 4.64%	–
C/C=C/C=N/Nc1nc(C)cc(=O)[nH]1	inconclusive: 5.35%	–
CCCc1cc(=O)oc2c3c(cc(OCC(=O)N[C@@H](CSC)C(=O)O)c12)OC(C)(C)CC3	inconclusive: -0.457%	–
O=C(O)CC1(c2ccccc2)C(=O)c2ccccc2C1=O	inconclusive: -12%	–

An excerpt from above in order of number of heavy atoms, descending.
SMILES	activity change, negative = inhibition	Potency
CC(=O)N[C@H](C(=O)N[C@@H](C)C(=O)N[C@H](C#N)CC(=O)O)C(C)C	inactive	–
O=C(OCCc1cc2ccccc2c(=O)o1)c1cccs1	inconclusive: 7.48%	–
O=C1NCCN1C(=O)C12CC3CC(CC(C3)C1)C2	inconclusive: -11.9%	–

— PubChem BioAssay AID493014 (National Center for Advancing Translational Sciences (NCATS), 2011)
